Binding data for 3 molecules are collected here from article PMC9842712, “Cryo-EM structure of hnRNPDL-2 fibrils, a functional amyloid associated with limb-girdle muscular dystrophy D3” (Nature Communications, 2022).

Experiment [1] concerns the target hnRNPDL-3 (human heterogeneous ribonucleoprotein D-like, isoform 3) (human) (UniProt O14979). Description: Thioflavin-T fluorescence + negative-stain TEM; 50 µM protein in 50 mM HEPES, 300 mM NaCl, pH 7.5, 37 °C, 600 rpm; read after 24 h, 48 h and 7 days; also 50 and 600 mM NaCl; both purified.
Experiment [2] concerns the target hnRNPDL-2 D259H (human) (UniProt O14979). Nature of the experiment: ultracentrifugation through a 20% glycerol cushion, SDS-PAGE of fractions + negative-stain TEM of the bottom fraction; incubated samples (same conditions as for the WT fibrils), 120,000 x g, 2 h, 4 °C; six fractions from top to bottom; both purified.
Experiment [3] has as its target hnRNPDL-2 D259N (human) (UniProt O14979). The experiment is described as above.

Results are given in words; binding and its absence hold for the method and conditions named. Some entries that bind do so weakly or less than the wild type.

B1: hnRNPDL-3 (human heterogeneous ribonucleoprotein D-like, isoform 3) (protein, UniProt O14979-3 1-244)
chain: MEDMNEYSNIEEFAEGSKINASKNQQDDGKMFIGGLSWDTSKKDLTEYLSRFGEVVDCTIKTDPVTGRSRGFGFVLFKDAASVDKVLELKEHKLDGKLIDPKRAKALKGKEPPKKVFVGGLSPDTSEEQIKEYFGAFGEIENIELPMDTKTNERRGFCFITYTDEEPVKKLLESRYHQIGSGKCEIKVAQPKEVYRQQQQQQKGGRGAAAGGRGGTRGRGRGQQSTYGKASRGGGNHQNNYQPY
Consider B1, for which the binding entry in experiment [1] is listed as “no binding (tested: 50 µM)”.

B2: hnRNPDL-2 D259H (protein, UniProt O14979-2 1-301)
chain: MEDMNEYSNIEEFAEGSKINASKNQQDDGKMFIGGLSWDTSKKDLTEYLSRFGEVVDCTIKTDPVTGRSRGFGFVLFKDAASVDKVLELKEHKLDGKLIDPKRAKALKGKEPPKKVFVGGLSPDTSEEQIKEYFGAFGEIENIELPMDTKTNERRGFCFITYTDEEPVKKLLESRYHQIGSGKCEIKVAQPKEVYRQQQQQQKGGRGAAAGGRGGTRGRGRGQGQNWNQGFNNYYDQGYGNYNSAYGGDQNYSGYGGYHYTGYNYGNYGYGQGYADYSGQQSTYGKASRGGGNHQNNYQPY
With B2, the binding entry in experiment [2] was “binds weakly”.

B3: hnRNPDL-2 D259N (protein, UniProt O14979-2 1-301)
chain: MEDMNEYSNIEEFAEGSKINASKNQQDDGKMFIGGLSWDTSKKDLTEYLSRFGEVVDCTIKTDPVTGRSRGFGFVLFKDAASVDKVLELKEHKLDGKLIDPKRAKALKGKEPPKKVFVGGLSPDTSEEQIKEYFGAFGEIENIELPMDTKTNERRGFCFITYTDEEPVKKLLESRYHQIGSGKCEIKVAQPKEVYRQQQQQQKGGRGAAAGGRGGTRGRGRGQGQNWNQGFNNYYDQGYGNYNSAYGGDQNYSGYGGYNYTGYNYGNYGYGQGYADYSGQQSTYGKASRGGGNHQNNYQPY
With B3, in experiment [3], the binding entry is “binds weakly”.
